Test results: PubChem BioAssay AID445 (National Center for Advancing Translational Sciences (NCATS), 2006)
Some of the results follow. These are further read-outs of the screen, such as a control signal, another cell line or another target. No call is given for them. Compounds called inactive in the main read-out are mostly missing here. The note in brackets gives the kind of curve behind each potency; many fits are weak.

Test: IkB Signaling
Details: ABC-DLBCL IkBa-CBG/CBR dual luciferase ratio (green luciferase fused to IkBa over red control in OCI-Ly3 lymphoma cells), 4 h
Procedure, shortened: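 In this assay, an IκBα–CBG68 fusion accumulates when IKK-driven degradation is blocked; native CBR normalizes for cell number. OCI-Ly3 cells were treated 4 h with compound and doxycycline, then green and red light read after Chroma-Glo addition.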

[1] = measured here: control luc red channel unless noted

COc1ccccc1-c1cc(C(=O)NC(C)c2ccccc2)no1 (stereo not drawn)
AC50 [1]: 1.26 µM [falling, partial curve]

Cc1ccc(NC(=O)c2c(NC(=O)c3ccccc3)sc3c2CCC3)cc1
AC50 [1]: 0.794 µM [falling, full curve]

COc1ccc(-c2nc3nc(C)c(Cc4ccccc4)c(=O)n3[nH]2)cc1
AC50 [1]: 2.51 µM [falling, full curve]

N#CC(C(=O)C1CCCCC1)c1nc2ccccc2[nH]1 (stereo not drawn)
AC50 [1]: 12.6 µM [falling, single point]

O=C(Nc1ccc2c(c1)nc1n2CCN(Cc2ccccc2)C1)c1cccs1
AC50 [1]: 12.6 µM [falling, partial curve]

O=C1CN(C(=O)c2ccc(Br)o2)C(c2ccc(F)cc2)c2cc(Cl)ccc2N1 (stereo not drawn)
AC50 [1]: 10 µM [falling, partial curve]

CC(C)Cn1c(=O)c2sccc2n2c(CCCC(=O)NC3CCCCC3)nnc12
AC50 [1]: 39.8 µM [falling, single point]

CCN(CC)CCNC(=O)c1ccc(-n2c(-c3ccccc3)cc3c2CCCC3)cc1
AC50 [1]: 31.6 µM [falling, partial curve]

COc1cccc(CNC(=O)CCCn2nc(C)c3c(C)n(-c4ccc(C)cc4)nc3c2=O)c1OC
AC50 [1]: 15.8 µM [falling, partial curve]

Cc1cc(C)cc(NC(=O)C2CCN(S(=O)(=O)c3cccc(-c4noc(C)n4)c3)CC2)c1
AC50 [1]: 39.8 µM [falling, single point]

CC1=Nc2cc(C(=O)NC(C)C)ccc2Sc2ccc(C)cc21
AC50 [1]: 39.8 µM [falling, single point]

Fc1ccc(Br)cc1C1C=C(c2ccc(Br)cc2)Nc2nnnn21 (stereo not drawn)
AC50 [1]: 0.0158 µM [falling, full curve, poor fit]

CCc1cccc(N2C(=O)CS(=O)(=O)C23C(=O)N(Cc2ccccc2)c2ccc(C)cc23)c1 (stereo not drawn)
AC50 [1]: 15.8 µM [falling, partial curve]

CSc1ccc(CNC(=O)c2sc3ncnc(N(C)C4CCCCC4)c3c2C)cc1
AC50 [1]: 25.1 µM [falling, single point]

CCOc1ccc(CN2C(=O)C(=O)c3cccc(C)c32)cc1OC
AC50 [1]: 0.398 µM [rising, full curve]

Cc1c(C(=O)Nc2ccc(F)cc2)oc2ccc(S(=O)(=O)N3CCCCCC3)cc12
AC50 [1]: 10 µM [falling, partial curve]

Cc1cc(C(=O)Nc2nnc(C3CCCCC3)s2)no1
AC50 [1]: 10 µM [falling, partial curve]

CN(c1ccccc1)S(=O)(=O)c1cccc(C(=O)N2CCN(c3ccccn3)CC2)c1
AC50 [1]: 25.1 µM [falling, partial curve]

O=C(CSc1nnc(COc2ccc(F)cc2)o1)N1c2ccccc2CCc2ccccc21
AC50 [1]: 3.98 µM [falling, full curve, poor fit]

Cc1cc(C)c(NC(=O)C2CCN(C(=O)N3CCOc4ccccc43)CC2)c(C)c1
AC50 [1]: 12.6 µM [falling, partial curve]

COc1cc2c(cc1NC(=O)COc1ccc(Br)cc1)oc1ccccc12
AC50 [1]: 39.8 µM [falling, single point]

COc1ccc(-c2cc(C(F)(F)F)n3ncc(-c4ccccc4)c3n2)cc1
AC50 [1]: 20 µM [falling, single point]

O=C(Nc1ccc(Cl)cc1)N1CCC(c2nc(-c3cccs3)no2)CC1
AC50 (measured here: IkB-luc green channel): 39.8 µM [falling, single point] | AC50 (measured here: control luc red channel): 25.1 µM [falling, single point]

CCN(CC)c1ccc(NC(=O)c2cc(OC)cc(OC)c2)c(C)c1
AC50 [1]: 3.98 µM [falling, partial curve]

CCOCCCn1c(SCC(=O)NCc2ccccc2)nc2c(sc3ccccc32)c1=O
AC50 [1]: 10 µM [rising, partial curve]

CCCCOc1ccccc1Cn1c(=O)sc2ccccc21
AC50 [1]: 39.8 µM [falling, single point]

CCOc1ccc(C(=O)Nc2cccc(NC(=O)c3ccc(Cl)cc3Cl)c2)cc1
AC50 [1]: 5.01 µM [falling, partial curve]

CSc1ncc(Cl)c(C(=O)C(C#N)c2nc3c(C)cc(C)cc3c(=O)[nH]2)n1 (stereo not drawn)
AC50 [1]: 15.8 µM [falling, partial curve]

Cn1c(SCC(=O)Nc2nc3ccccc3s2)ncc(C(=O)Nc2ccc(Cl)cc2)c1=O
AC50 [1]: 10 µM [falling, partial curve]

COc1cccc(NC(=O)Cn2nnc(C(=O)NCc3ccc4c(c3)OCO4)c2N)c1
AC50 [1]: 25.1 µM [falling, single point]

Cc1cc(C)c(NC(=O)CSc2nc(=O)n(Cc3cccnc3)c3c2CCC3)c(C)c1
AC50 [1]: 1.58 µM [rising, full curve, poor fit]

Cc1ccc(S(=O)(=O)CC(=O)Nc2nc3c(C)cccc3s2)cc1
AC50 [1]: 25.1 µM [falling, partial curve]

Cc1ccc(N2CCN(Cc3nnc(-c4ccccc4F)o3)CC2)c(C)c1
AC50 [1]: 25.1 µM [falling, single point]

CSc1ccc(/C=C/c2nc3ccccc3n2S(=O)(=O)c2ccc(Br)cc2)cc1
AC50 [1]: 0.0316 µM [falling, full curve]

COc1cccc(NC(=O)/C(C#N)=C/c2c(C)n(Cc3ccccc3)c3ccccc23)c1
AC50 [1]: 3.16 µM [falling, full curve]

CCOc1ccc(NC(=O)CCc2c(C)nc3nc(-c4cc(OC)cc(OC)c4)nn3c2C)cc1
AC50 [1]: 15.8 µM [falling, single point]

CCOC(=O)c1c(C)[nH]c(C)c1S(=O)(=O)N1CCCC(C(=O)Nc2cccc(CC)c2)C1 (stereo not drawn)
AC50 [1]: 10 µM [falling, partial curve, poor fit]

CC(=O)N1CCc2cc(Br)cc(S(=O)(=O)NCCc3cccc(C)c3)c21
AC50 [1]: 2 µM [falling, partial curve]

Fc1ccc(C(NCCc2ccc(Cl)cc2)c2nnc(-c3ccccc3Cl)o2)cc1 (stereo not drawn)
AC50 [1]: 20 µM [falling, partial curve]

COc1cc(OC)c(NC(=O)CCc2nc(-c3ccc(C)cc3)no2)cc1Cl
AC50 [1]: 7.94 µM [falling, partial curve]

CC(C)c1ccc(NC(=O)Cc2ccc(NC(=O)N3CCCCc4ccccc43)cc2)cc1
AC50 [1]: 25.1 µM [falling, partial curve]

CCC1CN(C(=O)NCc2ccc(F)cc2)c2cc(Cl)ccc2O1 (stereo not drawn)
AC50 [1]: 10 µM [falling, partial curve]

CCOc1cccc(CNC(=O)c2ccc(N3CCCC3)c(NC(=O)Nc3ccccc3CC)c2)c1
AC50 [1]: 15.8 µM [falling, partial curve]

Cc1c(C(=O)NCc2cccnc2)oc2ccc(S(=O)(=O)N3CCCCCC3)cc12
AC50 [1]: 15.8 µM [falling, partial curve]

Nc1nc(Nc2cccc(Cl)c2)sc1C(=O)c1ccc(F)cc1
AC50 [1]: 20 µM [falling, single point]

COc1ccc(NC(=O)c2cccn2-c2nnc(N3CCCCC3)s2)c(OC)c1
AC50 [1]: 0.0794 µM [rising, full curve, poor fit]

CC1C(O)=C(c2nc3ccccc3[nH]2)C(=N)N1c1ccccc1 (stereo not drawn)
AC50 [1]: 31.6 µM [rising, partial curve] [measured here: IkB-luc green channel]

O=C(CSCc1nc2ccccc2[nH]1)N1CCN(c2cccc(Cl)c2)CC1
AC50 [1]: 3.98 µM [falling, partial curve]

Cc1ccc(NC(=O)Nc2c(C)n(C)n(-c3ccccc3)c2=O)c(Cl)c1
AC50 [1]: 31.6 µM [falling, single point]

COc1ccccc1NC(=O)c1ccc(-c2nc(COc3ccc(C)cc3)c(C)o2)cc1
AC50 [1]: 15.8 µM [falling, single point]

CCOc1ccc(NC(=O)C2=C(C)C(=O)OC23CCC(C)CC3)cc1 (stereo not drawn)
AC50 [1]: 25.1 µM [falling, single point]

COc1ccc(-c2cc(C)no2)cc1S(=O)(=O)N1CCCC(C)C1 (stereo not drawn)
AC50 [1]: 39.8 µM [rising, single point] [measured here: IkB-luc green channel]

Cc1cccc(NC(=O)c2ccc3[nH]c(C)cc(=O)c3c2)c1
AC50 [1]: 2.51 µM [rising, full curve]

COc1cc(C2=NOC(C(=O)Nc3ccc(C)cc3)C2)cc(OC)c1OC (stereo not drawn)
AC50 [1]: 20 µM [falling, partial curve]

COC(=O)C(C)n1cnc2c(cnn2-c2ccc(Cl)cc2)c1=O (stereo not drawn)
AC50 [1]: 25.1 µM [falling, partial curve]

CCN(CC)C(=O)c1ccc2c(c1)N(Cc1ccccc1F)C(=O)c1ccccc1S2=O (stereo not drawn)
AC50 [1]: 3.16 µM [rising, partial curve]

Cc1ccc(NC(=O)Cn2c(=O)nc(-c3ccccc3)c3ccccc32)cc1
AC50 [1]: 5.01 µM [falling, partial curve]

Cc1cccc(C(=O)n2nc(-c3cccnc3)nc2NCc2ccc(F)cc2)c1
AC50 [1]: 7.94 µM [falling, partial curve]

CCOC(=O)Cc1c(C)nc2cc(-c3ccc(C(C)(C)C)cc3)nn2c1C
AC50 [1]: 31.6 µM [falling, single point]

COc1ccc(-n2ncc(C(=O)N3CCN(C4CCCCC4)CC3)c2C2CCN(C(=O)OC(C)(C)C)CC2)cc1
AC50 [1]: 20 µM [falling, partial curve]

C=CCc1ccccc1OCc1nc2ccc(C)cc2[nH]1
AC50 [1]: 15.8 µM [falling, partial curve]

Cn1c(=O)c2c(nc(NC3CCCCC3)n2CC(=O)C23CC4CC(CC(C4)C2)C3)n(C)c1=O
AC50 [1]: 20 µM [falling, partial curve]
